Assay results: PubChem BioAssay AID2685 (National Center for Advancing Translational Sciences (NCATS), 2010)
Some of the results follow. The main result of the screen is listed elsewhere. These columns were measured beside it and carry no call. Compounds called inactive in the main read-out are mostly missing here. The note in brackets gives the kind of curve behind each potency; many fits are weak.

Assay: qHTS Assay for Lipid Storage Modulators in Drosophila S3 Cells;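 as to cell number change: cells counted by Cell Tracker Red CMTPX staining in the red channel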
Details: BODIPY lipid droplet fluorescence, 18-24 h; for cell number change: measured here: cell count max response, cells fed with added oleic acid
How it was run: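 Drosophila S3 cells loaded with oleic acid (400 uM, as added) and compounds at several concentrations; lipid droplets imaged by 488-nm laser-scanning cytometry, 500–530 nm intensity and object ratio to cell channel. Percent activity normalized to 20 uM Triacsin C.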

[1] = measured here: cell number channel AC50, cells fed with added oleic acid
[2] = measured here: lipid fluorescence (Fed channel) AC50, cells fed with added oleic acid

| SMILES | cell number change [%] | AC50 [1] | AC50 [2] |
| --- | --- | --- | --- |
| Cc1cc(C(=O)NC2CCCc3c2cnn3-c2cccc(C)c2C)no1 (stereo unspecified) | -24.3 | 0.92 µM [falling, full curve, poor fit] | 11.6 µM [falling, single point] |
| O=c1c2ccccc2nnn1CSc1nnc(-c2cccs2)n1Cc1ccccc1 | 2.64 | – | 23.1 µM [rising, single point] |
| CCOc1ccc(C2/C(=C(\O)c3ccc4c(c3)OCCO4)C(=O)C(=O)N2CCCN2CCOCC2)cc1 (stereo unspecified) | 14.9 | – | 29.1 µM [rising, single point] |
| CC(=O)Nc1ccc(S(=O)(=O)NCC(=O)N2CCN(S(=O)(=O)c3cccs3)CC2)cc1 | -4.26 | – | – |
| COc1ccc(Cl)cc1NC(=O)c1cnc2n(c1=O)CCS2 | 82.7 | 11.6 µM [rising, partial curve] | 8.2 µM [rising, partial curve] |
| O=S1(=O)CCN(Cc2cccc(C(F)(F)F)c2)CC1 | -3.87 | 0.58 µM [falling, single point] | – |
| Cc1ccc(C)c(NC(=O)c2ccc3nccnc3c2)c1 | -17.9 | – | 29.1 µM [rising, single point] |
| CS(=O)(=O)N(CC(=O)N1CCCC1)c1cccc(Cl)c1 | – | 0.184 µM [rising, full curve, poor fit] | 0.231 µM [falling, full curve, poor fit] |
| Cc1ccccc1NC(=O)c1[nH]cnc1C(=O)NN | 22.5 | – | 29.1 µM [rising, single point] |
| Cc1cc(C)c(C(=O)CC(=O)c2ccccc2Cl)c(O)c1 | -2.04 | – | 29.1 µM [falling, single point] |
| CCOc1ccc(S(=O)(=O)N2CCCCC2)cc1NC(=O)CN1C(=O)NC(C)(c2ccccc2)C1=O (stereo unspecified) | -2.62 | – | 2.91 µM [rising, single point] |
| COC(=O)c1sc(-c2ccc(C(C)(C)C)cc2)cc1NC(=O)CSCC(=O)O | 24.6 | – | – |
| CCc1ccc(CNC(=O)C2CCCN(S(=O)(=O)N(CC)c3ccccc3)C2)cc1 (stereo unspecified) | – | – | 6.51 µM [rising, single point] |
| Cc1ccc(N=Cc2c(O)[nH]c3ccccc23)c([N+](=O)[O-])c1 | 32.9 | 29.1 µM [rising, single point] | – |
| O=C(NC1CCCCC1)c1ccccc1NC(=S)NC(=O)C1CC1 | 4.39 | – | 8.2 µM [rising, partial curve] |
| CCCCCCCCCCS(=O)(=O)N/N=C/c1ccccc1OC | -39.6 | 18.4 µM [falling, single point] | – |
| N#Cc1ccc2c(c1)C[C@]1(CCCCN3C(=O)c4ccccc4C3=O)Oc3c(c(=O)oc4ccccc34)C2O1 | 10.3 | – | 5.31 µM [rising, single point] |
| CCOc1ccc(N(CC(=O)N2CCN(C(=O)CN(c3ccc(OCC)cc3)S(C)(=O)=O)CC2)S(C)(=O)=O)cc1 | 4.99 | – | 29.1 µM [rising, single point] |
| COc1ccc(NC(=O)CCNS(=O)(=O)c2ccccc2F)cc1S(N)(=O)=O | -9.52 | – | – |
| O=C(NCCCN1CCOCC1)/C(=C/c1ccc(F)cc1)NC(=O)c1ccccc1 | -40.4 | – | 2.91 µM [rising, single point] |

Arranged by number of heavy atoms (smallest number first): some entries from above.

| SMILES | cell number change [%] | AC50 [1] | AC50 [2] |
| --- | --- | --- | --- |
| O=S1(=O)CCN(Cc2cccc(C(F)(F)F)c2)CC1 | -3.87 | 0.58 µM [falling, single point] | – |
| Cc1ccc(C)c(NC(=O)c2ccc3nccnc3c2)c1 | -17.9 | – | 29.1 µM [rising, single point] |
| Cc1ccc(N=Cc2c(O)[nH]c3ccccc23)c([N+](=O)[O-])c1 | 32.9 | 29.1 µM [rising, single point] | – |
| O=C(NCCCN1CCOCC1)/C(=C/c1ccc(F)cc1)NC(=O)c1ccccc1 | -40.4 | – | 2.91 µM [rising, single point] |
| CCOc1ccc(S(=O)(=O)N2CCCCC2)cc1NC(=O)CN1C(=O)NC(C)(c2ccccc2)C1=O (stereo unspecified) | -2.62 | – | 2.91 µM [rising, single point] |
| CCOc1ccc(C2/C(=C(\O)c3ccc4c(c3)OCCO4)C(=O)C(=O)N2CCCN2CCOCC2)cc1 (stereo unspecified) | 14.9 | – | 29.1 µM [rising, single point] |
| N#Cc1ccc2c(c1)C[C@]1(CCCCN3C(=O)c4ccccc4C3=O)Oc3c(c(=O)oc4ccccc34)C2O1 | 10.3 | – | 5.31 µM [rising, single point] |

Later entries

| SMILES | cell number change [%] | AC50 [1] | AC50 [2] |
| --- | --- | --- | --- |
| Cc1cccc(NC(=O)c2cc(S(=O)(=O)c3ccccc3)ccc2Cl)c1 | 12.2 | – | 16.4 µM [rising, single point] |
| CCc1ccc(Nc2nc(N)nc(CSc3nnnn3-c3ccccc3)n2)cc1 | -34.3 | 32.6 µM [falling, single point] | – |
| CCCCN1C(=O)C(=O)N(CC(=O)Nc2sc(CC)cc2C(=O)OCC)C1=O | 5.79 | – | 8.2 µM [rising, partial curve] |
| CCOC(=O)C1=C(C)NC(=O)NC1c1ccc(N(CC)CC)cc1 (stereo unspecified) | -40.3 | 23.1 µM [falling, single point] | 23.1 µM [falling, partial curve] |
| CCCCOC(=O)Nc1ccc(C)c(Cl)c1 | -11.9 | – | 14.6 µM [falling, partial curve] |
| COc1ccc(C(=O)N/C(=C\c2cn(S(=O)(=O)N(C)C)c3ccccc23)C(=O)NC(C)C)cc1 | -29.8 | – | 6.51 µM [falling, full curve] |
| O=C(CCN1C(=O)/C(=C\c2ccccc2)SC1=S)NCCCN1CCOCC1 | – | 0.146 µM [rising, full curve, poor fit] | – |
| COc1cnc(-c2ccccn2)nc1Sc1ccc(Cl)cc1 | -5.02 | 0.411 µM [falling, single point] | 6.51 µM [falling, single point] |
| O=C(NCC(c1cccs1)N1CCOCC1)c1ccco1 (stereo unspecified) | 10.3 | – | 2.06 µM [rising, partial curve] |
| CC(C)CC1NC(=S)N(C2CCCCC2)C1=O (stereo unspecified) | -25.5 | – | – |
| Cc1cc(NCCC(C)C)n2nc(C)c(-c3ccccc3)c2n1 | 22.5 | – | 0.58 µM [rising, single point] |
| Cc1ccc(S(=O)(=O)N2CCCc3ccccc32)cc1C | 1.81 | – | 6.51 µM [rising, single point] |
| CN(C)c1ccc(C(=S)N2CCOCC2)cc1Br | 1.67 | – | – |
| CC(c1ccccc1)C1CC(=O)N(Cc2ccco2)C1=O (stereo unspecified) | -2.68 | – | – |
| CC1(C)CC(=O)C(N=Nc2ccc(-c3ccccc3)cc2)=C(O)C1 | -30.9 | 32.6 µM [falling, single point] | – |
| OC(CNCCc1ccc(Cl)cc1)COCc1ccco1 (stereo unspecified) | 5.17 | – | 6.51 µM [falling, single point] |
| Cc1ccc(CNC(=S)NC2CCCCC2)cc1 | 30.8 | 5.8 µM [rising, partial curve, poor fit] | 18.4 µM [rising, single point] |
| COc1ccccc1CSc1nc2c(c(=O)n(C)c(=O)n2C)n1C | -23.6 | – | 20.6 µM [rising, partial curve] |
| CC1CC(C)CN(S(=O)(=O)CCNC(=O)c2ccc3c(c2)OCO3)C1 (stereo unspecified) | -24.7 | 0.58 µM [falling, full curve, poor fit] | 0.206 µM [falling, partial curve, poor fit] |
